# Results from PubChem BioAssay AID1487 (National Center for Advancing Translational Sciences (NCATS), 2009).
# The whole screen tested about 200,000 compounds, of which about 25 (0.01%) were called active. Inconclusive means that the source gave no clear call. Such entries were picked first, then a sample of the others. Calls follow the shape of the dose curve; as a rule, active = well fitted inhibition curve with a large enough effect in the signal ratio, with a control signal flat (not every such curve was filed as active); inconclusive = small, poorly fitted or top-dose-only effect, or effect the other way, or a change in a side signal; inactive = flat fitted curve, though single readings scatter; the % refers to the signal ratio. Potencies beside an inconclusive call are fits to weak or partial responses and may not hold up.
# Assay: qHTS Assay for Modulators of Lamin A Splicing
# Details: HeLa LMNA splicing GFP/RFP minigene ratio, 48 h; ratio change, negative = inhibition: at 46.1 µM (top of the series) unless noted
# Procedure, shortened: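 S3 HeLa stable clones carrying a lamin A-EGFP splicing minigene plus DsRed2 were seeded at 600 cells/well in Opti-MEM with 2% FBS, pin-dosed and incubated 48 h at 37°C. Acumen cytometry (488 nm) gave the GFP/RFP total-intensity ratio.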
# % is scaled to controls: 0 for no effect and ±100 for the full control effect; potency is read from the fitted curve at half-maximal effect.
Structure (SMILES),"ratio change, negative = inhibition",Potency
Cc1ccc2nc(NC(=O)c3ccc(S(=O)(=O)N4CCC(C)CC4)cc3)sc2c1,inconclusive: -17.9% [at 46 µM],
CCOC(=O)CCc1c(C)c2ccc(OCc3cc([N+](=O)[O-])ccc3OC)cc2oc1=O,inconclusive: 17.1%,
CCc1nc2sc3c(c2c(=O)n1NC(=O)CCl)CCCC3,,"inconclusive: 28.2 µM [inhibitor, single point]"
CCN(CCO)c1nc(SC)nc2c1sc1nc(-c3ccco3)c3c(c12)CCC3,,"inconclusive: 35.5 µM [cytotoxic, single point]"
Cc1ccc(N(C)S(=O)(=O)c2ccc(-c3coc(C)n3)cc2)cc1,inconclusive: -21.3% [at 46 µM],
COc1ccc(N2C(=O)CC(Nc3ccc(N4CCOCC4)cc3)C2=O)c(OC)c1 (stereo not given),inactive,
CC(=O)NCCNC(=O)c1ccc(Sc2ccccc2)c([N+](=O)[O-])c1,inconclusive: 22% [at 46 µM],
Cc1nc2ccc(S(=O)(=O)N(C)CC(=O)NCc3ccc4c(c3)OCO4)cc2s1,inconclusive: 8.39%,
O=C(COC(=O)c1cccnc1Nc1cccc(C(F)(F)F)c1)NCCN1C(=O)CSC1=O,,"inconclusive: 35.5 µM [fluorescent, single point]"
CC(=O)O[C@@H]1C[C@H]2C(C)(C)C(=O)C=C[C@]2(C)[C@H]2CC[C@@]3(C)[C@H](c4ccoc4)OC(=O)[C@H]4O[C@]43[C@@]21C,,"inconclusive: 28.2 µM [falling, single point]"
COc1ccc(-c2ccc(CNCCCSc3nnnn3C)o2)cc1Cl,inactive,
Cc1ccc(OCC(=O)N/N=C/c2cc([N+](=O)[O-])ccc2N2CCCCC2)cc1,inactive,
COc1ccc(OC)c(-c2csc(NC(=O)CSc3ccc([N+](=O)[O-])cc3)n2)c1,inconclusive: -42.2%,
CC1=C(C(=O)Nc2cccnc2)C(c2ccncc2)n2nnnc2N1 (stereo not given),inactive,
CCCNC(=O)C1CCN(C(=O)N2CC(C)Oc3ccccc32)CC1 (stereo not given),inconclusive: 24.3% [at 46 µM],
N#Cc1c(-c2ccccc2Cl)cc(-c2ccccc2)[nH]c1=S,inactive: -9.49% [at 9.22 µM],
CCC(c1nnnn1Cc1ccc(OC)cc1)N1CCN(c2ccc(OC)cc2)CC1 (stereo not given),inconclusive: 11.5% [at 46 µM],
CCCCCCNC(=O)c1c[nH]c2ccc(S(=O)(=O)N(C)c3ccc(C(C)C)cc3)cc2c1=O,inactive,
Cc1ccc(NS(=O)(=O)c2ccc(OCC(=O)NCc3ccco3)cc2)cc1,inactive,
Cc1ccccc1NC(=O)CNc1ccccc1N1CCCCC1,inconclusive: 8.8%,
COc1ccc(-n2c(=O)cc(N3CCN(c4ccccc4F)CC3)[nH]c2=O)cc1,inactive,
CCCCc1ccc(-c2csc(/C(C#N)=C\c3ccco3)n2)cc1,inactive,
COc1ccc(CN2CC(=O)N(c3ccc(C)cc3)C2=S)cc1OC,,"inconclusive: 35.5 µM [fluorescent, single point]"
COC(=O)Cn1c(=NC(=O)C(C)(C)C)sc2c(C)cc(C)cc21,inactive,
COC(=O)C1=C(O)/C(=C\c2sccc2C)N=C1C,inconclusive: -10.7%,

Structure (SMILES),"ratio change, negative = inhibition",Potency
Cc1nnc(SC(C)C#N)n1-c1ccccc1 (stereo not given),inconclusive: -7.07% [at 46 µM],
Cc1nnc(NC(=O)CSc2nnc(-c3ccccc3)n2C)s1,inactive,
CC(=O)Nc1nnc(SCC(=O)c2ccc3c(c2)Cc2ccccc2-3)s1,,"inconclusive: 11.2 µM [falling, partial curve]"
CCOC(=O)Cc1ccc(-c2ccccc2)cc1,inconclusive: 16.9%,
COc1cc(C(=O)Nc2ccc3oc(-c4cccnc4)nc3c2)cc(OC)c1OC,inconclusive: -12.2% [at 9.22 µM],
COc1cc(O)oc1C=Nc1ccc(C(F)(F)F)cc1,inconclusive: -25.5%,
CC(=O)c1nc2ccccc2n1CCc1ccccc1,inconclusive: -17.5% [at 46 µM],
CCOc1ccc(S(=O)(=O)Nc2ccccc2C(=O)Nc2ccccc2N2CCOCC2)cc1,inactive,
CCCCC(CC)CNC(=O)CCCCn1c(=O)[nH]c2ccsc2c1=O (stereo not given),inconclusive: -13.9% [at 46 µM],
CN(C)S(=O)(=O)Oc1ccccc1C(=O)Nc1ccc(F)cc1F,inconclusive: -6.72% [at 46 µM],
COc1ccc(OCc2nnc(SCC(=O)NCc3ccco3)o2)cc1,inactive,
CCOc1ccccc1N(CC(=O)N/N=C/c1cc(Br)ccc1OC)S(C)(=O)=O,inconclusive: 9.31%,
COc1ccc(NS(=O)(=O)c2cccc(NC(=O)C34CCC(CC3)C4)c2)cc1,,"inconclusive: 10 µM [falling, partial curve]"
CCC(Oc1ccccc1)C(=O)Nc1cc(-c2ccccc2F)nn1-c1ccccc1 (stereo not given),inconclusive: -9.21% [at 46 µM],
COc1ccc(CCN2C(=O)CSC2c2ccc(OC)c(OC)c2)cc1OC (stereo not given),inconclusive: 36.1% [at 46 µM],
COc1ccc2c(c1)O[C@@H](c1ccc3c(c1)OCO3)[C@H](OC(=O)Nc1cc(OC)c(OC)c(OC)c1)C2=O,,"inconclusive: 35.5 µM [fluorescent, single point]"
O=[n+]1c2c(n([O-])c3cc(F)c(N4CCCC4)cc31)CCCC2,inactive,
COc1cc(NC(=O)C(CC(C)C)N2Cc3ccccc3C2=O)cc(OC)c1 (stereo not given),inconclusive: -4.8% [at 46 µM],
Cc1ccc(NC(=O)Cn2c(=O)nc(-c3ccccc3)c3ccccc32)cc1,,"inconclusive: 35.5 µM [cytotoxic, single point]"
O=c1c(CCc2ccccc2)nc2cncnc2n1Cc1ccccc1Cl,inconclusive: -15.2%,
CC(C)c1ccc(NC(=O)Cc2ccc(NC(=O)N3CCCCc4ccccc43)cc2)cc1,inconclusive: -16.7% [at 46 µM],
COc1ccc(CCN2C(=O)CN(Cc3ccccc3)CC2=O)cc1OC,inactive,
COc1ccc(S(=O)(=O)NCCc2csc(-c3cccc(F)c3)n2)cc1OC,inactive,
CS(=O)(=O)Nc1ccc(-c2nc3ccccc3s2)cc1,inconclusive: 18.7% [at 46 µM],
COc1cccc(NC(=S)N(CCc2c(C)[nH]c3ccccc23)Cc2cccs2)c1,,"inconclusive: 22.4 µM [fluorescent, single point]"

# In the list so far, these contain a CF3 group:
Structure (SMILES),"ratio change, negative = inhibition",Potency
O=C(COC(=O)c1cccnc1Nc1cccc(C(F)(F)F)c1)NCCN1C(=O)CSC1=O,,"inconclusive: 35.5 µM [fluorescent, single point]"
COc1cc(O)oc1C=Nc1ccc(C(F)(F)F)cc1,inconclusive: -25.5%,
